Laboratory results taken from PubChem BioAssay AID1508600 (Functional Genomics Laboratory (NCATS/FGL), 2020).
The whole screen tested about 53,000 sequences, of which about 3,700 (7%) were called active.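 How the source made its calls: active means gene knockdowns whose robust z-score for IL-1 alpha signal is at least 2 or at most -2, so actives lie on both sides; inactive means the rest.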 Some of the results follow.

test: Components of the Cytosolic LPS Sensing Pathway: Gene Identification via Genome-wide siRNA Screen; settings: RAW264.7 macrophages, IL-1a HTRF, actives lie on both sides, screened at 100 nM (by protocol), cells primed 5 h with Pam3CSK4 first;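 further: robust z of the log signal after scaling to non-targeting control siRNA wells of the plate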
How it was run: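 Three distinct siRNAs per gene were tested singly at 100 nM in RAW264.7 macrophages. Following Pam3CSK4 priming and 24 hour LipidA transfection, IL-1a secretion was read by HTRF.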

Sequence | z-score
GGUCUCAGACAAAGAUGAATT against Trmt10c | inactive: -0.239
GGGUUUCCAGUACCUCAAUTT against Serpina6 | inactive: -1.28
GGUUAUAACAGUCUUAGCATT against Tlcd4 | inactive: 1.13
GGAUGAAGAUGAUGGAUGGTT against Entr1 | inactive: 0.0729
CCACAGUGAUUACGAUUAUTT against Mcpt2 | inactive: -1.19
GGCUUGGCUUUCAUGUUACTT against Islr2 | inactive: -0.635
GGAGAGUUUGUCAUUAGUUTT against Herpud2 | inactive: 0.78
GGUGUCAAAUAGCUGAAACTT against Nub1 | inactive: -1.03
GGCGUGCACACUAAACUGGTT against Nisch | inactive: 0.877
GGUGAGAAGCAAACUUUCATT against Ggps1 | inactive: -1.47
UGGUGGAUAUAGGAUUCUUTT against Cd300c | inactive: -0.814
GCGAUCGCCAAAAUCCGGUTT against Ptpmt1 | inactive: 1.3
GGCUCAAGCACAUAGGAUCTT against Pdlim4 | inactive: 0.143
CCCAACACCCAAUAAAGUUTT against Med25 | inactive: 0.171
GGUACAGCGGAGAUGUACATT against Nqo2 | inactive: 0.54
CCCAAUAAAACUUCCGGGATT against Ttc36 | inactive: 1.14
GGAAAAAUUGCUUCUGACCTT against Rad51b | inactive: -1.17
GGUCUAUCCAGGAAAAUGGTT against Uxs1 | inactive: -1.42
GUACCUACUUCACCACCAUTT against Tmem203 | inactive: -0.517
GGGCAUGGAACAAGAUGUCTT against Nckipsd | active: -2.43
GGUUAUAAACCAGAAGAGUTT against Mill2 | inactive: 0.807
GGUGAAGAGCCACAAGUUCTT against Prkcg | inactive: 0.428

Sequence | z-score
GCAGUAAAAUGACAUUUGGTT against Dennd6b | inactive: 0.694
GCUUCAGUAUUUAUUUGCUTT against Usp28 | active: 2.27
GGUUACAUAUCAGUUGAAATT against Slc35a3 | inactive: 0.032
GGGUAGGUAUCAAAAUAAUTT against 6030452D12Rik | inactive: 0.172
UGGGAUCUUCGUUUAAUGATT against Syncrip | inactive: 0.34
GCCUCGAGUAGAGUAUUCUTT against Tmem150c | inactive: 0.831
GGCUUUGUCUACACUUUCATT against Olfr1308 | inactive: -1.02
CGAAUUGUCUUUCUCACUATT against Olfr769 | inactive: 0.069
GCUGUAUAACGAGAUUGAATT against Ptges3l | inactive: -1.81
GGAUUUCAGUGUCUAGAAGTT against Frmd4b | inactive: 0.391
GCGGAAUUUGAUCACAUCCTT against Acp7 | inactive: -1.48
CCAAUAAGGUCUCUGCCCATT against Trit1 | inactive: 0.402
GUCGCACCGUAUUCACUGATT against Barx1 | inactive: 0.389
GGGUGAACUUACAGAAAUATT against Olfr214 | inactive: -0.405
GCGGAUUAUUUACAACACUTT against Ctnnal1 | inactive: -0.501
CCUAAGGAGGAUGCGUAUGTT against Mphosph10 | inactive: -0.729
GGGAAUUCACAGUCAGCCUTT against Il27 | inactive: 0.161
GGCUUCGAUGUGUUUAUGCTT against Bend7 | inactive: -0.0743
GCAUGUACCAAGGUUGAUGTT against Klhl17 | inactive: 1.36
GGGUCUUUAUAAACUCAGUTT against Tyr | inactive: 0.0639
GGAGCAGAUACAGAAGAUCTT against Pfdn2 | inactive: -1.21
GGAAGACCAGUAGGACUAGTT against Gast | inactive: -0.534

Sequence | z-score
CCUUCUCAUAAGCUACGGUTT against Pms1 | inactive: -0.882
GGCACCACUAAUCAUCAGATT against Nampt | inactive: -0.885
GGAGUUCAACAAUGGAUUATT against 1700019M22Rik | inactive: 1.27
CCCAUAACAAACUAAGACGTT against Trpm4 | inactive: -0.182
GGACAACUGGCUUCAGACATT against Epha10 | inactive: -0.104
GGGUGGAAGUGGAAUUUAUTT against C2cd6 | inactive: 1.4
GCCCACUGUAUGAAUUGUATT against Plk1 | inactive: -1.54
GGGCUCUUCAUUCAGACUCTT against Zfp513 | inactive: -0.866
GGAACUUCACUUUUAACACTT against Il33 | inactive: -0.534
GGCUAUGGCUUUUGUAUGUTT against Arpin | inactive: -0.0747
GGACUUCAACAACUGCUCUTT against Polr1a | active: 2.28
GCAGUGUCCAAAGCACUUUTT against Slc6a9 | inactive: -1.14
GCAGCUCAACUAUUCUUGATT against Macir | inactive: 0.0696
GGAAUUUCACUAUAAUCGCTT against Hoxb6 | inactive: 1
GGCGGAGAAAGUGUUCAUGTT against Ccdc51 | inactive: 0.277
GGUGGUGGUGCUUUUUGACTT against Tmem86a | inactive: -0.44
GGGUCUUAAUGGGAUGGCUTT against Tmem241 | inactive: -0.0277
GGCACAACAUCAUCUGUCUTT against Psmd9 | active: -2.05
GGCUCCUCAUUACCUCUACTT against Rrp7a | inactive: 0.233
GGAAUUCAUCUGUGGUCUCTT against Trim50 | inactive: -0.559
CCCUAUCCAUUCAUGGCACTT against Rd3 | inactive: 0.124
GGUCCUUCGUAGUUGUGGUTT against Sp110 | inactive: 1.33

Laid out differently: results already given.
GGACAACUGGCUUCAGACATT against Epha10
  z-score: inactive: -0.104
GGGUGGAAGUGGAAUUUAUTT against C2cd6
  z-score: inactive: 1.4
GCCCACUGUAUGAAUUGUATT against Plk1
  z-score: inactive: -1.54
GGGCUCUUCAUUCAGACUCTT against Zfp513
  z-score: inactive: -0.866

Next records follow.

Sequence | z-score
GGCUUUUAGGUGUAUCAGGTT against Btg4 | inactive: -0.734
GGCAUGUGUUUGAUAAGACTT against Tipin | inactive: 0.68
GGAAACCACAUGCCUGAGATT against Spp2 | inactive: -0.43
GGACACCACGUUCACCAAGTT against Rbm38 | inactive: -0.36
GGUUGGCCAUAUAAAGAGATT against Hltf | inactive: 1.12
CCCUGCAUUUGUCAAUUAUTT against Hnrnpl | inactive: -0.161
GCUCUAGCAACUAAGCGCATT against Fbxw26 | inactive: 0.493
CCAGACGAUCUCAUGAUGUTT against Cabs1 | inactive: 0.16
GGCUGAAGAGAGAUGAAUCTT against Nmur2 | inactive: -0.581
CCAAAGAUGCUCCUCACCUTT against Olfr197 | inactive: -0.158
GGCAUCAAUCUCUUUGAAATT against AF366264 | inactive: -0.963
GGCCCAUCUGAGGAAGCUUTT against Magea4 | inactive: -1.55
GGCUCACAAUUGCUCUGCATT against Psg21 | inactive: 0.47
GGUUUCUGGAGCGGCCAAATT against Haus8 | inactive: 0.934
GCAUCCUCCCUUCCCAAUGTT against Sh3bgr | inactive: -0.0974
GGAAAAAAUUAAAGAGCACTT against Gmcl1 | active: 2.15
GGUGUCAGAAAUUUCCAUATT against Pisd | inactive: -0.601
GCAUACGGAAUCUUUACGGTT against Asic1 | inactive: -1.66
GGUUUAACCAUGGAAGAAATT against Eya3 | inactive: -0.224
GCCCGGAAUUUCUCCUUCATT against Prrt1 | inactive: 0.547
GGGUGGAAGAGUUCAGUUUTT against Ptgr2 | inactive: -1.29
CCAUUGGUUUUGAGGAUAUTT against Pomp | inactive: -1.18

Sequence | z-score
GGUCCUUAGCUGUUCAUUCTT against Styx | inactive: -0.287
GGAACAAGCCCUGAAAGUCTT against Prl | inactive: 0.415
GGCCUACUACAUUUUGUCATT against Edrf1 | inactive: -0.342
GGUUACAUUUCGUACAAGATT against Ube2e1 | inactive: -0.638
CCUUACUCAUCUCAACUUATT against Phlpp1 | inactive: -0.396
GGGCUAUGUACCCUAUAAUTT against Eps8l1 | inactive: -1.37
CCCUAUGCUAUGCCUGAGUTT against Ampd3 | inactive: -1.63
GGAGCUGGACAAGUUCAUGTT against Clrn1 | inactive: -0.994
GGGAUAUCCGCCAUAAUUUTT against Pigm | inactive: -0.0716
GGAGAACCUGAUGAAGAAGTT against Rai1 | inactive: -0.664
CCUCGAGUCACCAACAUCGTT against Stt3b | active: -2.46
GGAUUUGCUGAUUUGUCAATT against Mtfr2 | inactive: 0.46
GCGAAAGAAGCACGUACCATT against Kcnc4 | inactive: 0.176
GGUCAACUGAAGAAGAACATT against Trmt10a | inactive: 1.56
GGUGAUUUUGUUGACAUAATT against Uri1 | inactive: 0.178
GGGAGACCGGCAAAAAAAATT against Pde1b | inactive: 0.999
CCCAUGGGUUUUUAAUUGATT against Ptgdr | inactive: -0.578
GCUUACAAGUACAAAAAUGTT against Smarcc1 | inactive: 0.378
GGGUCUAAGGGUUCCGUUATT against Abhd15 | inactive: -0.916

Pulled one by one from the list above (three):
Sequence | z-score
CCCUAUGCUAUGCCUGAGUTT against Ampd3 | inactive: -1.63
GCGAAAGAAGCACGUACCATT against Kcnc4 | inactive: 0.176
GGUGAUUUUGUUGACAUAATT against Uri1 | inactive: 0.178
